Publication PMC7694386

Protein sequences, listed by entry. Tags and fused reporters are not part of them.
UniProt O95817: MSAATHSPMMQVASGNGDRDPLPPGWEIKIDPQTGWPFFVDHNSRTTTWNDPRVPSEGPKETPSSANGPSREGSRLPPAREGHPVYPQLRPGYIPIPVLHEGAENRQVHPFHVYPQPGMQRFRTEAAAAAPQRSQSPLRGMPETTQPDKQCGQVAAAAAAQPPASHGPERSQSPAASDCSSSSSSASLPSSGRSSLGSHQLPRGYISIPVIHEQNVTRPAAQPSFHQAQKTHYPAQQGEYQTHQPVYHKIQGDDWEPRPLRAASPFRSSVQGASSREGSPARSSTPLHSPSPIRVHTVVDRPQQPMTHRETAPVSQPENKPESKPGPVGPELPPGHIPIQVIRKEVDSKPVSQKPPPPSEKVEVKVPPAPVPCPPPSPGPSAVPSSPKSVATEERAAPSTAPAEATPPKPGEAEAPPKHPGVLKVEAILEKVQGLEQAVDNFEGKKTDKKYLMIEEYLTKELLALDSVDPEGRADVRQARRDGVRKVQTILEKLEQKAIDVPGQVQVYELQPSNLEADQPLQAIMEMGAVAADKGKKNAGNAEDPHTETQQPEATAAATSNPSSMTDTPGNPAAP

B1: Hyaluronan mediated motility receptor (protein, UniProt O75330 1-724)
chain: MSFPKAPLKRFNDPSGCAPSPGAYDVKTLEVLKGPVSFQKSQRFKQQKESKQNLNVDKDTTLPASARKVKSSESKESQKNDKDLKILEKEIRVLLQERGAQDRRIQDLETELEKMEARLNAALREKTSLSANNATLEKQLIELTRTNELLKSKFSENGNQKNLRILSLELMKLRNKRETKMRGMMAKQEGMEMKLQVTQRSLEESQGKIAQLEGKLVSIEKEKIDEKSETEKLLEYIEEISCASDQVEKYKLDIAQLEENLKEKNDEILSLKQSLEENIVILSKQVEDLNVKCQLLEKEKEDHVNRNREHNENLNAEMQNLKQKFILEQQEREKLQQKELQIDSLLQQEKELSSSLHQKLCSFQEEMVKEKNLFEEELKQTLDELDKLQQKEEQAERLVKQLEEEAKSRAEELKLLEEKLKGKEAELEKSSAAHTQATLLLQEKYDSMVQSLEDVTAQFESYKALTASEIEDLKLENSSLQEKAAKAGKNAEDVQHQILATESSNQEYVRMLLDLQTKSALKETEIKEITVSFLQKITDLQNQLKQQEEDFRKQLEDEEGRKAEKENTTAELTEEINKWRLLYEELYNKTKPFQLQLDAFEVEKQALLNEHGAAQEQLNKIRDSYAKLLGHQNLKQKIKHVVKLKDENSQLKSEVSKLRCQLAKKKQSETKLQEELNKVLGIKHFDPSKAFHHESKENFALKTPLKEGNTNCYRAPMECQESWK
B2: U3 small nucleolar RNA-interacting protein 2 (protein, UniProt O43818 1-475)
chain: MSATAAARKRGKPASGAGAGAGAGKRRRKADSAGDRGKSKGGGKMNEEISSDSESESLAPRKPEEEEEEELEETAQEKKLRLAKLYLEQLRQQEEEKAEARAFEEDQVAGRLKEDVLEQRGRLQKLVAKEIQAPASADIRVLRGHQLSITCLVVTPDDSAIFSAAKDCSIIKWSVESGRKLHVIPRAKKGAEGKPPGHSSHVLCMAISSDGKYLASGDRSKLILIWEAQSCQHLYTFTGHRDAVSGLAFRRGTHQLYSTSHDRSVKVWNVAENSYVETLFGHQDAVAALDALSRECCVTAGGRDGTVRVWKIPEESQLVFYGHQGSIDCIHLINEEHMVSGADDGSVALWGLSKKRPLALQREAHGLRGEPGLEQPFWISSVAALLNTDLVATGSHSSCVRLWQCGEGFRQLDLLCDIPLVGFINSLKFSSSGDFLVAGVGQEHRLGRWWRIKEARNSVCIIPLRRVPVPPAAGS
B3: Protein SCAF11 (protein, UniProt Q99590 1-1463)
chain: MKKKTVCTLNMGDKKYEDMEGEENGDNTISTGLLYSEADRCPICLNCLLEKEVGFPESCNHVFCMTCILKWAETLASCPIDRKPFQAVFKFSALEGYVKVQVKKQLRETKDKKNENSFEKQVSCHENSKSCIRRKAIVREDLLSAKVCDLKWIHRNSLYSETGGKKNAAIKINKPQRSNWSTNQCFRNFFSNMFSSVSHSGESSFTYRAYCTEFIEASEISALIRQKRHELELSWFPDTLPGIGRIGFIPWNVETEVLPLISSVLPRTIFPTSTISFEHFGTSCKGYALAHTQEGEEKKQTSGTSNTRGSRRKPAMTTPTRRSTRNTRAETASQSQRSPISDNSGCDAPGNSNPSLSVPSSAESEKQTRQAPKRKSVRRGRKPPLLKKKLRSSVAAPEKSSSNDSVDEETAESDTSPVLEKEHQPDVDSSNICTVQTHVENQSANCLKSCNEQIEESEKHTANYDTEERVGSSSSESCAQDLPVLVGEEGEVKKLENTGIEANVLCLESEISENILEKGGDPLEKQDQISGLSQSEVKTDVCTVHLPNDFPTCLTSESKVYQPVSCPLSDLSENVESVVNEEKITESSLVEITEHKDFTLKTEELIESPKLESSEGEIIQTVDRQSVKSPEVQLLGHVETEDVEIIATCDTFGNEDFNNIQDSENNLLKNNLLNTKLEKSLEEKNESLTEHPRSTELPKTHIEQIQKHFSEDNNEMIPMECDSFCSDQNESEVEPSVNADLKQMNENSVTHCSENNMPSSDLADEKVETVSQPSESPKDTIDKTKKPRTRRSRFHSPSTTWSPNKDTPQEKKRPQSPSPRRETGKESRKSQSPSPKNESARGRKKSRSQSPKKDIARERRQSQSRSPKRDTTRESRRSESLSPRRETSRENKRSQPRVKDSSPGEKSRSQSRERESDRDGQRRERERRTRKWSRSRSHSRSPSRCRTKSKSSSFGRIDRDSYSPRWKGRWANDGWRCPRGNDRYRKNDPEKQNENTRKEKNDIHLDADDPNSADKHRNDCPNWITEKINSGPDPRTRNPEKLKESHWEENRNENSGNSWNKNFGSGWVSNRGRGRGNRGRGTYRSSFAYKDQNENRWQNRKPLSGNSNSSGSESFKFVEQQSYKRKSEQEFSFDTPADRSGWTSASSWAVRKTLPADVQNYYSRRGRNSSGPQSGWMKQEEETSGQDSSLKDQTNQQVDGSQLPINMMQPQMNVMQQQMNAQHQPMNIFPYPVGVHAPLMNIQRNPFNIHPQLPLHLHTGVPLMQVATPTSVSQGLPPPPPPPPPSQQVNYIASQPDGKQLQGIPSSSHVSNNMSTPVLPAPTAAPGNTGMVQGPSSGNTSSSSHSKASNAAVKLAESKVSVAVEASADSSKTDKKLQIQEKAAQEVKLAIKPFYQNKDITKEEYKEIVRKAVDKVCHSKSGEVNSTKVANLVKAYVDKYKYSRKGSQKKTLEEPVSTEKNIG
B4: Ribosomal RNA processing protein 1 homolog A (protein, UniProt P56182 1-461)
chain: MVSRVQLPPEIQLAQRLAGNEQVTRDRAVRKLRKYIVARTQRAAGGFTHDELLKVWKGLFYCMWMQDKPLLQEELGRTISQLVHAFQTTEAQHLFLQAFWQTMNREWTGIDRLRLDKFYMLMRMVLNESLKVLKMQGWEERQIEELLELLMTEILHPSSQAPNGVKSHFIEIFLEELTKVGAEELTADQNLKFIDPFCRIAARTKDSLVLNNITRGIFETIVEQAPLAIEDLLNELDTQDEEVASDSDESSEGGERGDALSQKRSEKPPAGSICRAEPEAGEEQAGDDRDSGGPVLQFDYEAVANRLFEMASRQSTPSQNRKRLYKVIRKLQDLAGGIFPEDEIPEKACRRLLEGRRQKKTKKQKRLLRLQQERGKGEKEPPSPGMERKRSRRRGVGADPEARAEAGEQPGTAERALLRDQPRGRGQRGARQRRRTPRPLTSARAKAANVQEPEKKKKRRE
B5: Protein HGH1 homolog (protein, UniProt Q9BTY7 1-390)
chain: MGEAGAGAGASGGPEASPEAEVVKLLPFLAPGARADLQAAAVRHVLALTGCGPGRALLAGQAALLQALMELAPASAPARDAARALVNLAADPGLHETLLAADPGLPARLMGRALDPQWPWAEEAAAALANLSREPAPCAALMAALAAAEPADSGLERLVRALCTPGYNARAPLHYLAPLLSNLSQRPAARAFLLDPDRCVVQRLLPLTQYPDSSVRRGGVVGTLRNCCFEHRHHEWLLGPEVDILPFLLLPLAGPEDFSEEEMERLPVDLQYLPPDKQREPDADIRKMLVEAIMLLTATAPGRQQVRDQGAYLILRELHSWEPEPDVRTACEKLIQVLIGDEPERGMENLLEVQVPEDVEQQLQQLDCREQEQLERELAPEPWVERATPT
B6: Probable ATP-dependent RNA helicase DDX47 (protein, UniProt Q9H0S4 1-455)
chain: MAAPEEHDSPTEASQPIVEEEETKTFKDLGVTDVLCEACDQLGWTKPTKIQIEAIPLALQGRDIIGLAETGSGKTGAFALPILNALLETPQRLFALVLTPTRELAFQISEQFEALGSSIGVQSAVIVGGIDSMSQSLALAKKPHIIIATPGRLIDHLENTKGFNLRALKYLVMDEADRILNMDFETEVDKILKVIPRDRKTFLFSATMTKKVQKLQRAALKNPVKCAVSSKYQTVEKLQQYYIFIPSKFKDTYLVYILNELAGNSFMIFCSTCNNTQRTALLLRNLGFTAIPLHGQMSQSKRLGSLNKFKAKARSILLATDVASRGLDIPHVDVVVNFDIPTHSKDYIHRVGRTARAGRSGKAITFVTQYDVELFQRIEHLIGKKLPGFPTQDDEVMMLTERVAEAQRFARMELREHGEKKKRSREDAGDNDDTEGAIGVRNKVAGGKMKKRKGR

Molecular target: BAG3 (BCL-2-associated athanogene 3) (human (endogenous in HEK293T)) (UniProt O95817)
Assay: affinity purification with mass spectrometry; endogenous BAG3 immunoprecipitated with anti-BAG3 antibody and Protein A/G magnetic beads from HEK293T lysate; cells treated with DMSO (basal) or 10 µM MG132 for 6 h; IgG IP (MG132_IgG) as control; label-free quantification, three biological replicates

binding, binds:
B1
B2
B3
B4
B5
B6

These are yes or no findings as the source states them, for the method shown. Binding seen in cells or lysates may run through a third protein. Here binding means that the protein was enriched with, or labelled near, the bait; the list need not be complete.
